Data reported in the supplement of paper PMC10849652.
The list shows a part of the results.

By UniProt entry, the sequences of proteins in these tests, tags left out. Where a name states a change or a piece, a line headed by the entry shows the natural chain unless it says otherwise.
UniProt O43837: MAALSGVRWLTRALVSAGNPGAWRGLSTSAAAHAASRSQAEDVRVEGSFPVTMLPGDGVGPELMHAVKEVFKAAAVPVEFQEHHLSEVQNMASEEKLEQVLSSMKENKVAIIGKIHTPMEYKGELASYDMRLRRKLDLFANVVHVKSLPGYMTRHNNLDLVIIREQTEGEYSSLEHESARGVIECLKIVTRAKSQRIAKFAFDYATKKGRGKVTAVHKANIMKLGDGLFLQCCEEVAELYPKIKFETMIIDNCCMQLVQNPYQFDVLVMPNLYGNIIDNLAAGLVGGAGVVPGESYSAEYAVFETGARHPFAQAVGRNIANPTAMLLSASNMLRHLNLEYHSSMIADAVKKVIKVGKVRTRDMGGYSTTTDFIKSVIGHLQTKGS
UniProt Q9UI26: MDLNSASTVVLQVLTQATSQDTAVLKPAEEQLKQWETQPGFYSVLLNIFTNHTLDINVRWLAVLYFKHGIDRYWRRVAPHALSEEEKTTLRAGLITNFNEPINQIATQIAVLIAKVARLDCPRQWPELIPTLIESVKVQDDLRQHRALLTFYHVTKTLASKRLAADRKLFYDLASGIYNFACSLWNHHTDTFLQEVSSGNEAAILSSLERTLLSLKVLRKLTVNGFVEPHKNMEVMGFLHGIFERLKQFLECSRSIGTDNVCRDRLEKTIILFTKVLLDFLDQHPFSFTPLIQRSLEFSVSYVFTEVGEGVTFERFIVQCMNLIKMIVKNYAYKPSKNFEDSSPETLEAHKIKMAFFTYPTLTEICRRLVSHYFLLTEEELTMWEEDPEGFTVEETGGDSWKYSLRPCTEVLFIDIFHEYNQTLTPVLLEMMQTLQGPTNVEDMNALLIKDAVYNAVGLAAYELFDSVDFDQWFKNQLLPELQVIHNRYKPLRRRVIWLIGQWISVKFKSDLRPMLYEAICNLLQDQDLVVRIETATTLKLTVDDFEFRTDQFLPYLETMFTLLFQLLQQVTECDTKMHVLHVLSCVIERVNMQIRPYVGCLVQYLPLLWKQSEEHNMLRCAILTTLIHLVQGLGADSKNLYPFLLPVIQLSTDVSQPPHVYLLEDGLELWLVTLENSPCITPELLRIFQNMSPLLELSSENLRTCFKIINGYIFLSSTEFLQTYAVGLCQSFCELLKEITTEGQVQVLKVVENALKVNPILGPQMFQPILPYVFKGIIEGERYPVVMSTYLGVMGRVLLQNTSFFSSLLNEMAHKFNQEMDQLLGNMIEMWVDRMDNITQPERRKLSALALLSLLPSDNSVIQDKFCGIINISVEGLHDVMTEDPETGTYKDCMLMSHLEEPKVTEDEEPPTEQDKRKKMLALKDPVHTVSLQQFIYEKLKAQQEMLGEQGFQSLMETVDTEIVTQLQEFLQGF
UniProt Q13418: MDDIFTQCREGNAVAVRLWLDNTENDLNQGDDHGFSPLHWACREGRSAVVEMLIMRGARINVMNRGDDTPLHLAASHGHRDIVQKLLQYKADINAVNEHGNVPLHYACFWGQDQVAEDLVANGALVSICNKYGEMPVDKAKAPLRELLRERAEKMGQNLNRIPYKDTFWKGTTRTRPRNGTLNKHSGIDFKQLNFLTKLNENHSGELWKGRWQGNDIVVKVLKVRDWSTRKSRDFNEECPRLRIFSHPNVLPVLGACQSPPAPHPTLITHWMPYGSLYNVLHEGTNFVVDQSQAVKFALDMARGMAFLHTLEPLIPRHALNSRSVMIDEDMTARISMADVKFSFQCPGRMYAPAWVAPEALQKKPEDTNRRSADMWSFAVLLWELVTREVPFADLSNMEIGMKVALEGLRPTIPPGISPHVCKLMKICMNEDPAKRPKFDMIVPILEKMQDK
UniProt P11717, whole entry, looked up: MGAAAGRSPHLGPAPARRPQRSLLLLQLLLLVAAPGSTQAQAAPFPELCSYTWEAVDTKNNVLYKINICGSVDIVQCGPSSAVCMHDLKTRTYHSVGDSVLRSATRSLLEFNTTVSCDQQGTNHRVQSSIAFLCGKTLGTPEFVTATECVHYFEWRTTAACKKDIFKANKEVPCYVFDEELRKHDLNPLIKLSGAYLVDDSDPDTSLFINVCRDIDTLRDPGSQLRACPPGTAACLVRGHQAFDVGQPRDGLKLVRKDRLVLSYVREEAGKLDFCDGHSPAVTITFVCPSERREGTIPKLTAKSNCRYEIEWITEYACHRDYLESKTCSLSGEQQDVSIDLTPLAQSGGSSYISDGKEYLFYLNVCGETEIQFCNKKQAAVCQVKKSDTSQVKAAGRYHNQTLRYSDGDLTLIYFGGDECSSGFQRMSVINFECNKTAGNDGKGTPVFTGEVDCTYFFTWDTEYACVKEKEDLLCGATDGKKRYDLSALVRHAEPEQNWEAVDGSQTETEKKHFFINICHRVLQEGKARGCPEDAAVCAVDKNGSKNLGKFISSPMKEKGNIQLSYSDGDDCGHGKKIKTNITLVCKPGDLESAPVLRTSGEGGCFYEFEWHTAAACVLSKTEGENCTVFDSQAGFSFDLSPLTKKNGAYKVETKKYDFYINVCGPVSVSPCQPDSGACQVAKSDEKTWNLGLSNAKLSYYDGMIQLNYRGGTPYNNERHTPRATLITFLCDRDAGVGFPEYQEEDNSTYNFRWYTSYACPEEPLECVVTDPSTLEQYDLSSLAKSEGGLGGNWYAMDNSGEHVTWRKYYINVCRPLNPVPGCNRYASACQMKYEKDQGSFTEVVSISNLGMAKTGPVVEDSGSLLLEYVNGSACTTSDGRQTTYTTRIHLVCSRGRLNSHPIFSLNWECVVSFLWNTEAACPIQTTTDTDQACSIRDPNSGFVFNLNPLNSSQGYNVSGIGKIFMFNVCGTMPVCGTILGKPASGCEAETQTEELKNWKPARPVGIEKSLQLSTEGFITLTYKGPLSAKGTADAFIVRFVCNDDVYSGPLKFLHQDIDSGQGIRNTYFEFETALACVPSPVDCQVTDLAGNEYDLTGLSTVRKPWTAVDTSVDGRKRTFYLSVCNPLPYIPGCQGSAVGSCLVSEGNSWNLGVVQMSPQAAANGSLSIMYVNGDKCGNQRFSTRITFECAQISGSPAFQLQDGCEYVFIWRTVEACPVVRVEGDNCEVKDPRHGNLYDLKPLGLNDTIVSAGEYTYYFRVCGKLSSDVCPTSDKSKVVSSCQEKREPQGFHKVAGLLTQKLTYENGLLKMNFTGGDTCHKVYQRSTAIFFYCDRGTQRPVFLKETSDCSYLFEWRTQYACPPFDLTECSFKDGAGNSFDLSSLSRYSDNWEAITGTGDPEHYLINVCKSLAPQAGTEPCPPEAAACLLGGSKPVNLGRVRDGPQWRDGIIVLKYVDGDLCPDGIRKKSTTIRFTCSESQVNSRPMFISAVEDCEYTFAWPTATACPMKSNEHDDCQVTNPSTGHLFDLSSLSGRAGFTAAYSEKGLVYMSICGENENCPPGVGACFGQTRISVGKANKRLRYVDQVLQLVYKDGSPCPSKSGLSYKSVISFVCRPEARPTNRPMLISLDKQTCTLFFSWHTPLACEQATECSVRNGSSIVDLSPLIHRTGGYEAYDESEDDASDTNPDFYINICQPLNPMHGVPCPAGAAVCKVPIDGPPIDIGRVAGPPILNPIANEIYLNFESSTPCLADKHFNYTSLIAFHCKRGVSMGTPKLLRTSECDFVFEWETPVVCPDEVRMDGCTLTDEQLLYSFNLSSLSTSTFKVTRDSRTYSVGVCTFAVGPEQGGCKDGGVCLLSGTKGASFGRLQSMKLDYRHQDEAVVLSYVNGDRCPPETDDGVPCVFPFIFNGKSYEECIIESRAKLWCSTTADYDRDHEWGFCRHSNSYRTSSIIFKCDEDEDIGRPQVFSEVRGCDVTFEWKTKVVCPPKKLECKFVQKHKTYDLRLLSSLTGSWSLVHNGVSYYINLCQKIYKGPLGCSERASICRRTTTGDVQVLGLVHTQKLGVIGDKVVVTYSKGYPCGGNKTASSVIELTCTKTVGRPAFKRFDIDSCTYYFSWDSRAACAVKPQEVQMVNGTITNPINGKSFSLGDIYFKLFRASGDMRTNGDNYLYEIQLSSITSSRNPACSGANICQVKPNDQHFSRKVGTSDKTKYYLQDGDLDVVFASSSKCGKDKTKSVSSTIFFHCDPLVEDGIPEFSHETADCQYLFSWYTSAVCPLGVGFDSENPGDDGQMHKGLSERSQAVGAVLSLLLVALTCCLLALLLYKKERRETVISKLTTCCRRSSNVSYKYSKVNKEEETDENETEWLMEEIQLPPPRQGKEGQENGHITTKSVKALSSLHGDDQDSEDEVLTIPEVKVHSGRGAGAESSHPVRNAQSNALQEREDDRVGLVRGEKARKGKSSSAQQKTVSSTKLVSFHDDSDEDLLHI
UniProt P17181: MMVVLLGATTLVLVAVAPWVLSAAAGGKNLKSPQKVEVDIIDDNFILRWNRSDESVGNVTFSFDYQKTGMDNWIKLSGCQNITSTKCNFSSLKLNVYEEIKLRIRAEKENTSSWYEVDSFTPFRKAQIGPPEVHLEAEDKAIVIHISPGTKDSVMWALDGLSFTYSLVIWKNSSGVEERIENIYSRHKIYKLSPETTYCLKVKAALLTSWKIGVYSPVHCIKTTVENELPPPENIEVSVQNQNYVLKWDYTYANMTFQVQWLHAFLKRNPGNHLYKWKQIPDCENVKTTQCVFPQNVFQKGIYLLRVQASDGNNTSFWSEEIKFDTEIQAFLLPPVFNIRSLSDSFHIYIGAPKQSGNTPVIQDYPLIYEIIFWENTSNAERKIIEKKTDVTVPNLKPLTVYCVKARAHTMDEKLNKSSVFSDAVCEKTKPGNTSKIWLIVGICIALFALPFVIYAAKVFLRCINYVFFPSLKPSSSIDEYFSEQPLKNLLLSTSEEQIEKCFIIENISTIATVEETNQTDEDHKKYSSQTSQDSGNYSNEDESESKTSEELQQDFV
UniProt O75874, whole entry, looked up: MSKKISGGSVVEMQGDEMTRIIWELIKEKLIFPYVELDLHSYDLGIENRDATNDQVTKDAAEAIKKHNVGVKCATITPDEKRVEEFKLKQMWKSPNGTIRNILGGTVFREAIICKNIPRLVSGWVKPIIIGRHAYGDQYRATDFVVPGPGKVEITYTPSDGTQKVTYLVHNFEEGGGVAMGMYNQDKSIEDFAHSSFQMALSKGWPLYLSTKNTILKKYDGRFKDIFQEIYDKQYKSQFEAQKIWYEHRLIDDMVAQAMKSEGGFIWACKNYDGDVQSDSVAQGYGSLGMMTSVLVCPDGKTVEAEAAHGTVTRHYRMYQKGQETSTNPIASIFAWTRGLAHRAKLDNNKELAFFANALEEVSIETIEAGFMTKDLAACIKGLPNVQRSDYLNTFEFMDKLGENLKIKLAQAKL
UniProt Q6UWB1, whole entry, looked up: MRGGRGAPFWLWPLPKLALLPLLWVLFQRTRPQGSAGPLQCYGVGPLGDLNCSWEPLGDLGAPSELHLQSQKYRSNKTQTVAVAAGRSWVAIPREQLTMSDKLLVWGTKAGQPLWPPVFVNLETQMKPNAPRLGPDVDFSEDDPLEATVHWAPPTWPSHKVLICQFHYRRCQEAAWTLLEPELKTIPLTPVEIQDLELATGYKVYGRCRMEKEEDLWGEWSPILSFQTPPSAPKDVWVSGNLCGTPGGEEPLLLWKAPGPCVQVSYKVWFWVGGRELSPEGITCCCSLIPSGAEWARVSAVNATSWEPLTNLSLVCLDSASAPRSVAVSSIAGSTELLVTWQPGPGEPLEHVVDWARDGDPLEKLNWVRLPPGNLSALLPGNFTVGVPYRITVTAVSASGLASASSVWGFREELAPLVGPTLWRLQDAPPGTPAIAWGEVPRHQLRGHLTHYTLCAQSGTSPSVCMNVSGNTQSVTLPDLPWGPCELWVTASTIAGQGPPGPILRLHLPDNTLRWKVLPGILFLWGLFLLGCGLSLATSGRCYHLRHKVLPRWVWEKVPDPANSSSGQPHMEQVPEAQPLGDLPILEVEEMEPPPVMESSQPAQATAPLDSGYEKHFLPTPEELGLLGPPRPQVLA
UniProt Q9NV31: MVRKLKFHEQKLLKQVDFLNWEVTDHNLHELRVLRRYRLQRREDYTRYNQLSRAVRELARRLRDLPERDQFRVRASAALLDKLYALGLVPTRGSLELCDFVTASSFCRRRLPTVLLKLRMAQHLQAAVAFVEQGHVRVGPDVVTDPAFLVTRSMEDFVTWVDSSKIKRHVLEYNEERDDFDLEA

Key:
Test in all cases: log2 fold change, soluble protein after heating vs DMSO (PISA); higher = thermal stabilisation; K562 cells, 10 uM, 30 min; active = over 0.2 and 3.5 SD of the protein, either way, in both replicates (recomputed)
[1] = compound: C1=CC=C(C=C1)[C@H](COC2=CC3=C(C=C2)NC(=O)N3)NC(=O)C4=CC=CN(C4=O)CC5=CC(=C(C=C5)F)F
Summary of the method: (§1)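 Soluble protein was quantified by TMTpro 16plex LC-MS/MS after channel sums were equalised. It was obtained as the supernatant after 21,000xg for 90 min from pooled aliquots of K562 cells (2×10^6 cells/mL, 10 μM compound, 30 min) heated for 3 min across 48°C-58°C and extracted in PBS with 0.5% NP-40 at 4°C. Thermal stability values are relative to control samples and come from duplicates. They are given as log2 fold changes.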

[2] = compound: CC1=C(SC2=C1C(=N[C@H](C3=NN=C(N32)C)CC(=O)N)C4=CC=C(C=C4)Cl)C
Summary of the method: as §1

[3] = compound: CC1=C2C(=CC=C1)N=C(N(C2=O)C3=CC=CC=C3C)CN4C=NC5=C(N=CN=C54)N
Summary of the method: as §1

[4] = compound: Cc1sc2c(c1C)C(c1ccc(Cl)cc1)=N[C@@H](CC(=O)OC(C)(C)C)c1nnc(C)n1-2
Summary of the method: as §1

[5] = compound: c1ccc([C@@H]2C[C@H]2NC2CCNCC2)cc1
Summary of the method: as §1

Measured: log2 fold change

IDH3B (UniProt O43837)
inactive: [1] -0.013 | [2] 0.02 | [3] 0.036 | [4] 0.004 | [5] -0.016

IPO11 isoform 2 (UniProt Q9UI26)
inactive: [1] 0.048 | [2] 0.064 | [3] 0.01 | [4] 0.013 | [5] 0.001

ILK (UniProt Q13418)
inactive: [1] -0.081 | [2] 0.017 | [3] 0.132 | [4] 0.053 | [5] -0.087

INTS3 (UniProt Q68E01)
inactive: [1] -0.097 | [2] 0.042 | [3] -0.07 | [4] 0.01 | [5] 0.029

IGF2R (UniProt P11717)
inactive: [1] 0.013 | [2] 0.007 | [3] -0.008 | [4] 0.001 | [5] -0.002

IFNAR1 (UniProt P17181)
inactive: [1] 0.035 | [2] 0.133 | [3] 0.08 | [4] -0.065 | [5] -0.053

IDH1 (UniProt O75874)
inactive: [1] 0.008 | [2] 0.006 | [3] -0.009 | [4] -0.008 | [5] 0.006

IL27RA (UniProt Q6UWB1)
inactive: [1] 0.021 | [2] 0.144 | [3] 0.002 | [4] 0.097 | [5] 0.096

IMP3 (UniProt Q9NV31)
inactive: [1] 0.199 | [2] 0.033 | [3] 0.17 | [4] 0.029 | [5] -0.07
